Laboratory results from publication PMC12533153.
Results are given in words; binding and its absence hold for the method and conditions named. Binding seen in cells or lysates may run through a third protein. Some results given as binding are weak or reduced against the parent protein; the word gives no strength. Where a sequence is shown, tags or fusion partners need not be part of it.

Target: T1, Syndecan-4 (SDC4), mouse, 3FLAG-tagged (mouse) (UniProt O35988)
T1 sequence: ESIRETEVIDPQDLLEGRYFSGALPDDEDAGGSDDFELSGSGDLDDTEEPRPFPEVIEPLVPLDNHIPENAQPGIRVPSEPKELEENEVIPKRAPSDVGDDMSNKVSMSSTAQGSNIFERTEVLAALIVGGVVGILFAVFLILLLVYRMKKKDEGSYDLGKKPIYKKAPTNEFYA
Experiment: co-IP; beta-TC-6 cells lysed in RIPA lysis buffer (50 mM Tris-Base, 150 mM NaCl, 5 mM EDTA, 1% NP-40, 0.1% SDS, pH 7.4); lysate incubated with Anti-Flag Affinity Gel overnight at 4 °C; washed six times with RIPA; western blotting

binding: binds
B1: Midkine (MDK) (ligand, UniProt P12025 23-140)
chain: KKKEKVKKGSECSEWTWGPCTPSSKDCGMGFREGTCGAQTQRVHCKVPCNWKKEFGADCKYKFESWGACDGSTGTKARQGTLKKARYNAQCQETIRVTKPCTSKTKSKTKAKKGKGKD
